# Values quoted from earlier work in US8697141B2, “Method and composition for preventing and healing osteonecrosis of the jaw” (Micropure, Inc., priority 2008, dated 2014).
# For at least one compound, name, drawing or mass did not settle the structure.
# Tested on: capillary neoangiogenesis
compound,measurement,value
O=P(O)(O)C(O)(Cn1ccnc1)P(=O)(O)O [zoledronic acid],new formation of capillaries from blood vessels,inhibit the new formation of capillaries from blood vessels
